Results taken from publication doi:10.1101/769059.
Read-outs that look alike come from different tables or passages of the source. Results are given in words; binding and its absence hold for the method and conditions named. In cells and extracts the contact can be indirect. Some binding calls cover weakened binding; strength is not graded here.

Chains of the proteins cited; added tags and fusions are not shown. Lines headed by an entry give the natural chain unless they say otherwise; changes in a name come on top. Residues count along the entry.
UniProt Q99J83: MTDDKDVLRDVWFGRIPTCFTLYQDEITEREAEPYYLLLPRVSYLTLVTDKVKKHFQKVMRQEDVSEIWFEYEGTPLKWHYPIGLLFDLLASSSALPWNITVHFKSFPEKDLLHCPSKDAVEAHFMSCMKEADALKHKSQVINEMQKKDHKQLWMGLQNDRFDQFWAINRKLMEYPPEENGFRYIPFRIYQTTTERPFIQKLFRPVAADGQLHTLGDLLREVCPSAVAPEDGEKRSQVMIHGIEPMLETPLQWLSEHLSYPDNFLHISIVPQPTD
UniProt Q07113, residues 36-2483: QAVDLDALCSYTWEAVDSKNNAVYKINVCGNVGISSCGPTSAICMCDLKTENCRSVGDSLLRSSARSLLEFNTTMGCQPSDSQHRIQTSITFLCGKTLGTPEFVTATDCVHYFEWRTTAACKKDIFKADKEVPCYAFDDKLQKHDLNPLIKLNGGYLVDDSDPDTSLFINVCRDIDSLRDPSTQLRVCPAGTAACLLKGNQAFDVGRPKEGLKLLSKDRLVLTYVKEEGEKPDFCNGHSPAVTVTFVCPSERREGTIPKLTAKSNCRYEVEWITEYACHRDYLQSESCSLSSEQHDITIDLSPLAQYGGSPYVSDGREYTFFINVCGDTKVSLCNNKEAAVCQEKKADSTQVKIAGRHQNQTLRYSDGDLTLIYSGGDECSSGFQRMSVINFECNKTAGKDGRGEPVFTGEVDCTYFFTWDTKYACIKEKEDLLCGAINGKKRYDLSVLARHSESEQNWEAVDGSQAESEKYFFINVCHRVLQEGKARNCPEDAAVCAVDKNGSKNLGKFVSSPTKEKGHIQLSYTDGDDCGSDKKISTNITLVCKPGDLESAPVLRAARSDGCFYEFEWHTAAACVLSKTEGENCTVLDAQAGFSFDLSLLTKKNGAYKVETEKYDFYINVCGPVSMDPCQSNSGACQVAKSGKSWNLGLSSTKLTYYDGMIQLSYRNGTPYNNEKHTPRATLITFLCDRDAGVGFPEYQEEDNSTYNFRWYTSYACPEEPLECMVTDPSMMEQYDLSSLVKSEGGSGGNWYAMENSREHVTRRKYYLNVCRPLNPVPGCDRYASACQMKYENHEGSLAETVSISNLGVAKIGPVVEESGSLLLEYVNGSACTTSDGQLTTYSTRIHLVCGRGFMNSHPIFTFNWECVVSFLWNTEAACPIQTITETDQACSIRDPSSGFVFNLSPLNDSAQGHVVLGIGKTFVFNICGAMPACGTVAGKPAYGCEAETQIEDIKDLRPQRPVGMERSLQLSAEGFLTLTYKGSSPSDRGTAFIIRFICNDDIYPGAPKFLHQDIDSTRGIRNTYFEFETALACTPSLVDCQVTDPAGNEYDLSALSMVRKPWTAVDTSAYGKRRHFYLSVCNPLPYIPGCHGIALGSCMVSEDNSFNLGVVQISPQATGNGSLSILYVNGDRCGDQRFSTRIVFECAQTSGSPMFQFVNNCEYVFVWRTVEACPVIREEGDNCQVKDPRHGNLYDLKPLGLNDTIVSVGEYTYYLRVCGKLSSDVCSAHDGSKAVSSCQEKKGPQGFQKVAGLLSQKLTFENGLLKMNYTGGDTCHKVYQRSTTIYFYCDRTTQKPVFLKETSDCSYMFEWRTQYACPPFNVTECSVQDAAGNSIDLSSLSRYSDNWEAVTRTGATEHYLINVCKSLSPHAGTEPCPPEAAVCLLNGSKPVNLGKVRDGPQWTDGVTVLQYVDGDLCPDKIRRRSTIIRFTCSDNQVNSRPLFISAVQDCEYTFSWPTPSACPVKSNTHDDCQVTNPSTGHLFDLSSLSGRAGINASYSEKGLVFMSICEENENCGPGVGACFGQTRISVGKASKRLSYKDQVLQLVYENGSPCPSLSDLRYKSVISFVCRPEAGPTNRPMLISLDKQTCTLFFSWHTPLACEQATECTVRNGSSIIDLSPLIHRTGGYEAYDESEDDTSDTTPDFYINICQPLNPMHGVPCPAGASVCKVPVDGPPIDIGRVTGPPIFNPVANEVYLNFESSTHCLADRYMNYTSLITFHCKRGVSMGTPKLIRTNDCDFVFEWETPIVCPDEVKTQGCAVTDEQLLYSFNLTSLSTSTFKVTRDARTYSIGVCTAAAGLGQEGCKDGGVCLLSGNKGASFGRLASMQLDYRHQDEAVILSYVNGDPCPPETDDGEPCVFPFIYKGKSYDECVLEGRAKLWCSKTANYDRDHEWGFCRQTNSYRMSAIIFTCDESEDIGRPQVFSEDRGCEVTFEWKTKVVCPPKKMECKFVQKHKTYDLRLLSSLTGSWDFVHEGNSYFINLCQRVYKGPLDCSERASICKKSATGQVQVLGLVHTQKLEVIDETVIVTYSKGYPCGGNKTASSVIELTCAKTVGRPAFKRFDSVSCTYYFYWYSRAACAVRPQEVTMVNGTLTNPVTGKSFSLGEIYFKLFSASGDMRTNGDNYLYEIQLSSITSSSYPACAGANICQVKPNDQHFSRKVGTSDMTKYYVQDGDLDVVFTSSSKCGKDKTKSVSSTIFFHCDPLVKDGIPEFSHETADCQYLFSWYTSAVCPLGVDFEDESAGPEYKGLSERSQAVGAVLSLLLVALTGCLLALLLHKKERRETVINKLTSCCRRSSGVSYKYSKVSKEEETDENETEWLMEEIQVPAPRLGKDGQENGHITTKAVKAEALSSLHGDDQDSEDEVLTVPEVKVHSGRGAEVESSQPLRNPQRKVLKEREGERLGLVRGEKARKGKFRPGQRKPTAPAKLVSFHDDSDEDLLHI
UniProt Q61194: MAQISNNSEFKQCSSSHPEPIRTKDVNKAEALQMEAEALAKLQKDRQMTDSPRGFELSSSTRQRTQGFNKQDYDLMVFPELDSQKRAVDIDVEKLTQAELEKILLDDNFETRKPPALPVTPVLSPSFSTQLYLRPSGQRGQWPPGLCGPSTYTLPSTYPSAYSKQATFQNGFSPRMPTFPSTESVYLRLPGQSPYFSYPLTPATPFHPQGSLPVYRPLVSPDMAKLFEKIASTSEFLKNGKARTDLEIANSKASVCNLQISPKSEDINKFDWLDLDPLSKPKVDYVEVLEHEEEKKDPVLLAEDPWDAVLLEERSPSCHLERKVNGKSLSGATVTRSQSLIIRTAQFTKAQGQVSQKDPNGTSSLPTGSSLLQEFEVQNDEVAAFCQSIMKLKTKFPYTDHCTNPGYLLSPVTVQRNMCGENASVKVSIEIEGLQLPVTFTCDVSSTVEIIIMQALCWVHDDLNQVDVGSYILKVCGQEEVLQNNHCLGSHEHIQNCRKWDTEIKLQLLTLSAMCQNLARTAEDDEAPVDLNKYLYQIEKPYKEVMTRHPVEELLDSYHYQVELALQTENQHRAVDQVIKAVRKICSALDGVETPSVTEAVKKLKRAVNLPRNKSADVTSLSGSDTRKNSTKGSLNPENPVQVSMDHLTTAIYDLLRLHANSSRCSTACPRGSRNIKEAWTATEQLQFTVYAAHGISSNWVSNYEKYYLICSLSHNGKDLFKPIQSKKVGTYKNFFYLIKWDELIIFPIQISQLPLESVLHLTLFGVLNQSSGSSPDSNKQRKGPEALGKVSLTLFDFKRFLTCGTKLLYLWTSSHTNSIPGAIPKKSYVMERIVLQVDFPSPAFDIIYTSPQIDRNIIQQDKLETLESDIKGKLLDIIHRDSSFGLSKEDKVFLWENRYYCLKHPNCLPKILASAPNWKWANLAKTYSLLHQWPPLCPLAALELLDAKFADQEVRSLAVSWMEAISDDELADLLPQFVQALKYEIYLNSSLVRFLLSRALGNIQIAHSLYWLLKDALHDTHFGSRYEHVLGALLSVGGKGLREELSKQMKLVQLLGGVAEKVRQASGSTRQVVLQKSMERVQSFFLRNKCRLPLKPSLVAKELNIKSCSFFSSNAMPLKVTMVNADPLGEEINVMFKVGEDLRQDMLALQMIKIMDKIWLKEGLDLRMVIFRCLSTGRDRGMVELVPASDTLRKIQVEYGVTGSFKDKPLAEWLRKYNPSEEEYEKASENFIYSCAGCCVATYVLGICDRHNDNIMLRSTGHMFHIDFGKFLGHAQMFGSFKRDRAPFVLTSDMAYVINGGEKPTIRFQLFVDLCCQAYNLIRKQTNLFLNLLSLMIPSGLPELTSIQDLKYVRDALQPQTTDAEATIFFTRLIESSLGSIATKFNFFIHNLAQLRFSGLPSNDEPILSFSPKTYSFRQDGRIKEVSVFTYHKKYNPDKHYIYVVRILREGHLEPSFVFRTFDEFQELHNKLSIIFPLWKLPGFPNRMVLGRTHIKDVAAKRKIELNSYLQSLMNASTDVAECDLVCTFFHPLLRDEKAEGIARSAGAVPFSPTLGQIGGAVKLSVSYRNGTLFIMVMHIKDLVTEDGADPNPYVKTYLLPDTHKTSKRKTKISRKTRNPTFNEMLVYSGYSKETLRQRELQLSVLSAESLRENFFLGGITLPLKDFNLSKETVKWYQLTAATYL
UniProt Q91VH2: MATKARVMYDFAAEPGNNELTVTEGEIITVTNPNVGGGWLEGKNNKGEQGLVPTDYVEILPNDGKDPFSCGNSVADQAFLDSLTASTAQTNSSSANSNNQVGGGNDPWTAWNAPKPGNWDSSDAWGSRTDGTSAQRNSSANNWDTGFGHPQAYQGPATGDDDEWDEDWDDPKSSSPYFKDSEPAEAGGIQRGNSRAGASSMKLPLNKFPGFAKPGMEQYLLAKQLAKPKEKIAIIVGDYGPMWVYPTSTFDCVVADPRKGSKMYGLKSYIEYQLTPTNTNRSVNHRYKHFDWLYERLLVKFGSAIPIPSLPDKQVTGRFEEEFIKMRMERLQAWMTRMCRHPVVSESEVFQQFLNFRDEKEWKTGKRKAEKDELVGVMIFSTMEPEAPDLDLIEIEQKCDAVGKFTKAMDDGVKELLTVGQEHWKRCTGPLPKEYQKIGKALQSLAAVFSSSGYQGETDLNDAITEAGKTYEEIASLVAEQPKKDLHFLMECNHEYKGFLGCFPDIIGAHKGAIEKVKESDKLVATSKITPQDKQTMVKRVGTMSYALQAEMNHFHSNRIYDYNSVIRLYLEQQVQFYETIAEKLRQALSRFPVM

Tests used:
Test in all cases: co-IP
K130R GFP-ATG5 (mouse) [1] = target: K130R GFP-ATG5 (mouse) (UniProt Q99J83)
[2] = target: wild-type GFP-ATG5 (mouse) (UniProt Q99J83)
K130R GFP-ATG5 (mouse) [3] = target: K130R GFP-ATG5 (mouse) (UniProt Q99J83); remark: listed apart in the source
[4] = target: wild-type GFP-ATG5 (mouse) (UniProt Q99J83); remark: listed apart in the source

| Molecule | binding (K130R GFP-ATG5 (mouse) [1]) | binding [2] | binding (K130R GFP-ATG5 (mouse) [3]) | binding [4] |
| --- | --- | --- | --- | --- |
| insulin-like growth factor 2 receptor (from UniProt Q07113 36-2483) | no binding | binds |  |  |
| phosphatidylinositol 4-phosphate 3-kinase C2 domain-containing subunit alpha (from UniProt Q61194 1-1686) (enzyme) | no binding | binds | no binding | binds |
| sorting nexin 9 (from UniProt Q91VH2 1-595) | no binding |  |  |  |
| DNM1 (protein, UniProt P39053 1-867) MGNRGMEDLIPLVNRLQDAFSAIGQNADLDLPQIAVVGGQSAGKSSVLENFVGRDFLPRGSGIVTRRPLVLQLVNSTTEYAEFLHCKGKKFTDFEEVRLEIEAETDRVTGTNKGISPVPINLRVYSPHVLNLTLVDLPGMTKVPVGDQPPDIEFQIRDMLMQFVTKENCLILAVSPANSDLANSDALKIAKEVDPQGQRTIGVITKLDLMDEGTDARDVLENKLLPLRRGYIGVVNRSQKDIDGKKDITAALAAERKFFLSHPSYRHLADRMGTPYLQKVLNQQLTNHIRDTLPGLRNKLQSQLLSIEKEVDEYKNFRPDDPARKTKALLQMVQQFAVDFEKRIEGSGDQIDTYELSGGARINRIFHERFPFELVKMEFDEKELRREISYAIKNIHGIRTGLFTPDMAFETIVKKQVKKIREPCLKCVDMVISELISTVRQCTKKLQQYPRLREEMERIVTTHIREREGRTKEQVMLLIDIELAYMNTNHEDFIGFANAQQRSNQMNKKKTSGNQDEILVIRKGWLTINNIGIMKGGSKEYWFVLTAENLSWYKDDEEKEKKYMLSVDNLKLRDVEKGFMSSKHIFALFNTEQRNVYKDYRQLELACETQEEVDSWKASFLRAGVYPERVGDKEKASETEENGSDSFMHSMDPQLERQVETIRNLVDSYMAIVNKTVRDLMPKTIMHLMINNTKEFIFSELLANLYSCGDQNTLMEESAEQAQRRDEMLRMYHALKEALSIIGDINTTTVSTPMPPPVDDSWLQVQSVPAGRRSPTSSPTPQRRAPAVPPARPGSRGPAPGPPPAGSALGGAPPVPSRPGASPDPFGPPPQVPSRPNRAPPGVPSLGAWRLNSPQGKHENRAGKARL | no binding |  |  |  |
| DNM2 (protein, UniProt P39054 1-870) MGNRGMEELIPLVNKLQDAFSSIGQSCHLDLPQIAVVGGQSAGKSSVLENFVGRDFLPRGSGIVTRRPLILQLIFSKTEYAEFLHCKSKKFTDFDEVRQEIEAETDRVTGTNKGISPVPINLRVYSPHVLNLTLIDLPGITKVPVGDQPPDIEYQIKDMILQFISRESSLILAVTPANMDLANSDALKLAKEVDPQGLRTIGVITKLDLMDEGTDARDVLENKLLPLRRGYIGVVNRSQKDIEGKKDIRAALAAERKFFLSHPAYRHMADRMGTPHLQKTLNQQLTNHIRESLPTLRSKLQSQLLSLEKEVEEYKNFRPDDPTRKTKALLQMVQQFGVDFEKRIEGSGDQVDTLELSGGARINRIFHERFPFELVKMEFDEKDLRREISYAIKNIHGVRTGLFTPDLAFEAIVKKQVVKLKEPCLKCVDLVIQELISTVRQCTSKLSSYPRLREETERIVTTYIREREGRTKDQILLLIDIEQSYINTNHEDFIGFANAQQRSTQLNKKRAIPNQGEILVIRRGWLTINNISLMKGGSKEYWFVLTAESLSWYKDEEEKEKKYMLPLDNLKIRDVEKGFMSNKHVFAIFNTEQRNVYKDLRQIELACDSQEDVDSWKASFLRAGVYPEKDQAENEDGAQENTFSMDPQLERQVETIRNLVDSYVAIINKSIRDLMPKTIMHLMINNTKAFIHHELLAYLYSSADQSSLMEESAEQAQRRDDMLRMYHALKEALNIIGDISTSTVSTPVPPPVDDTWLQNTSGHSPTPQRRPVSSVHPPGRPPAVRGPTPGPPLIPMPVGATSSFSAPPIPSRPGPQSVFANNDPFSAPPQIPSRPARIPPGIPPGVPSRRAPAAPSRPTIIRPAEPSLLD | no binding |  |  |  |
